The target in the experiment is aryl hydrocarbon receptor (AHR) (human (endogenous in A549)) (UniProt P35869). The experiment is described as follows: co-IP; A549 cells treated with or without 100 uM CQ for 6 h; about 2 mg whole cell extract with rabbit anti-AHR antibody SA210 and Dynabeads Protein G, IP buffer with 150 mM NaCl and 0.05% Tween-20, 16-18 h in a cold room; Western blot for AHR, LAMP2 and Hsc70.

Chains of the proteins cited; added tags and fusions are not shown. Residues count along the entry.
UniProt P35869, residues 11-848: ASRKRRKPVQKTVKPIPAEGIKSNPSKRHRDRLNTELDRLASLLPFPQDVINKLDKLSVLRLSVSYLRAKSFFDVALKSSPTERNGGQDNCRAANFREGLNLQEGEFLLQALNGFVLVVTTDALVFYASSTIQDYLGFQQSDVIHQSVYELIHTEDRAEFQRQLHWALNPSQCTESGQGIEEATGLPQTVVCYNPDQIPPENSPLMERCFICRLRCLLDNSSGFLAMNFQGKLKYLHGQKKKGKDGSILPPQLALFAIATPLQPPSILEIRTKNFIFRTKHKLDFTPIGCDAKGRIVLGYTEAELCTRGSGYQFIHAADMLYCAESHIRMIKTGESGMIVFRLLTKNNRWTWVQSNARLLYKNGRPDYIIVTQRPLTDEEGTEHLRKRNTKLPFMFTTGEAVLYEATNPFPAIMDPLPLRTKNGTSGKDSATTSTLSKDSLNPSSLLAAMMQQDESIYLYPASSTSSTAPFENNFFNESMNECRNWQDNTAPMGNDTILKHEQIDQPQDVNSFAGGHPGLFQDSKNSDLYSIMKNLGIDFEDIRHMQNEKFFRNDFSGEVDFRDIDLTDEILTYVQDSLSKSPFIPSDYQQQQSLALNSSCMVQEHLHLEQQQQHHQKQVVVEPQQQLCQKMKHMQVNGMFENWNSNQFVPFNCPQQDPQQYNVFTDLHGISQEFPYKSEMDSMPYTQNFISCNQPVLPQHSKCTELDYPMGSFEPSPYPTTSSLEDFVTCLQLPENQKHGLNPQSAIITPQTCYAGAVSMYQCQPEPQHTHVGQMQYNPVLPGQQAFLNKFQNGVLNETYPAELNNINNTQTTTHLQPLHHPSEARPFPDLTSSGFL
UniProt P11142: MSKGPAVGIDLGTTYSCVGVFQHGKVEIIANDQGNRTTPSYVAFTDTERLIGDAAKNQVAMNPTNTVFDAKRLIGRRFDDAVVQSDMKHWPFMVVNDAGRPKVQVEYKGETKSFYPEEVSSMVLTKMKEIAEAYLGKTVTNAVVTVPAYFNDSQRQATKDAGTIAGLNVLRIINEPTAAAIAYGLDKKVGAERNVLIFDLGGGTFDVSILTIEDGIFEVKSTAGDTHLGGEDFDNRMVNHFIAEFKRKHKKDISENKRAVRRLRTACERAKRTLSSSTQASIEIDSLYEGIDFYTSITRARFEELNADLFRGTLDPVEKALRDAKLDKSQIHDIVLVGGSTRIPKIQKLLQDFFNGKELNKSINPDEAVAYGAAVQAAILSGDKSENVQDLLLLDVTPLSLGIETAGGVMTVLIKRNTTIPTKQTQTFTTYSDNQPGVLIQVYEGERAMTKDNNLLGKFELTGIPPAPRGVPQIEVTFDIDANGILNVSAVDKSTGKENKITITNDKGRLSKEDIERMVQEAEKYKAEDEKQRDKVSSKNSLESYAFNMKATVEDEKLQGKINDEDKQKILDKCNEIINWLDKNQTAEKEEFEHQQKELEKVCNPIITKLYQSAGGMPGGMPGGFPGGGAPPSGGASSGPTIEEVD

These are yes or no findings as the source states them, for the method shown. In cells and extracts the contact can be indirect. Some results given as binding are weak or reduced against the parent protein; the word gives no strength.

Consider “heat shock cognate 70 kDa protein (HSC70) (from UniProt P11142 1-646)”, for which the binding entry is “binds”.

For the origin of these results see paper PMC10606571.
